Source: PubChem BioAssay AID1508600 (Functional Genomics Laboratory (NCATS/FGL), 2020)
The whole screen tested about 53,000 sequences, of which about 3,700 (7%) were called active.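 The calls were made as follows: active = gene knockdowns whose robust z-score for IL-1 alpha signal is at least 2 or at most -2, so actives lie on both sides; inactive = the rest.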 The list shows a part of the results.

Test: Components of the Cytosolic LPS Sensing Pathway: Gene Identification via Genome-wide siRNA Screen;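 also: robust z of the log signal after scaling to non-targeting control siRNA wells of the plate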
Details: RAW264.7 macrophages, IL-1a HTRF, actives lie on both sides, screened at 100 nM (by protocol), cells primed 5 h with Pam3CSK4 first
Summary of the method: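 Supernatant IL-1a by HTRF from RAW264.7 cells primed with Pam3CSK4 (5 hours) and transfected with LipidA (24 hour) after 48h siRNA knockdown at 100 nM; cell viability checked with CellTiter-Glo.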

Row | Sequence | z-score
1 | CCCAUUUAGAAUUACGGCATT against Ppp2r2d | inactive: 0.581
2 | GGCGGAUAUCAAUACGAAATT against Rpl14 | inactive: 0.537
3 | GCUGAUGGCAGAGGAAACATT against Olfr213 | inactive: -1.09
4 | GGUUUUCCUAAAGUCAACATT against Bfar | active: -2.24
5 | GGAGCUGGCUGACUUCAUUTT against Fcho1 | inactive: 0.825
6 | GGAGCCUCAUGAAAAAUGCTT against 9930014A18Rik | inactive: -0.34
7 | GGGUCAGCCAAAGGAAAAUTT against Nlrc3 | inactive: -0.193
8 | CCAAUGCAAGUGCUACAGUTT against Zfp277 | active: -2.64
9 | GCCUCCAACUGAACAAAUUTT against Tnfrsf14 | inactive: 0.0618
10 | GGAACCCUAUAUCUAGCAATT against Olfr114 | inactive: 1.56
11 | CGAUAAUUUGGCUAAGUAUTT against Pikfyve | inactive: 0.252
12 | CCUCUAACAUACGUAAGUUTT against Necap1 | inactive: -1.05
13 | GCCUAUCUAAUAUACAACGTT against Dnase2b | inactive: -0.172
14 | GGUUCCACUCUGAACUUAATT against Ces1c | inactive: 1.55
15 | GGGAAGAUGAGAUUGAAGCTT against Cdhr1 | inactive: -0.552
16 | GGCAGGUAAUUUUGAAUGUTT against Lemd2 | inactive: 1.45
17 | GCGAGCUGAACAAAUGGUCTT against Cyp24a1 | inactive: -1.28
18 | GGCUGACAAGGAAUUUGUATT against Cntln | inactive: 0.26
19 | CCUUUCCAAACACCUAUAATT against Sox6 | inactive: -1.2
20 | GGAAAACGGACUAUUGUCCTT against Phf13 | inactive: 0.575
21 | GCGCACACCCUACUUGAUUTT against Pcdh20 | inactive: 1.08
22 | GGUGAAUCAGACAUACUAUTT against Snupn | active: 3.31

Row | Sequence | z-score
23 | GGAUUUACAUCCAUUGUUGTT against Otoa | inactive: 0.153
24 | GGUCAAGAAAAAGUUUCAGTT against Spag7 | inactive: -0.309
25 | CGAUACUGAUCACUCCUAUTT against Uggt1 | inactive: -0.206
26 | GAGAGUCGCGCGCUUUUAATT against Nxph4 | inactive: 1.23
27 | GGUAUAUGGUGGGAACUUUTT against Bnipl | active: 2.04
28 | GGGUGUGUUCUUAUCUCAUTT against Olfr921 | inactive: 1.52
29 | CCUAUUCCAUUGACAAUGATT against Tubb2a | inactive: 0.286
30 | GCUAGACUUGGAGAAUUAATT against G3bp2 | inactive: 1.21
31 | GGAAUUCCAUUCCAGUCGCTT against H2al1m | inactive: -0.886
32 | CCUUCAACACCACGAAUCUTT against Npdc1 | inactive: 1.47
33 | GGUCAAGUAUCAUUUUUGCTT against Negr1 | inactive: -0.631
34 | GGAUGUGAUCCUACUGACATT against Tmem208 | inactive: 0.793
35 | GCUAGAACAGCAAAAAAAATT against Scgb3a1 | inactive: -0.512
36 | GGUGUACUUUUUCCUAUUUTT against Olfr352 | inactive: -0.91
37 | CCUGUAAAACAUUGUGAACTT against Fam189b | inactive: 0.0797
38 | GCUUAUGAGACUCAUUUAATT against Oser1 | inactive: 0.554
39 | CCAGAUCCCAUAGCAACCATT against Bpnt1 | inactive: -0.747
40 | AACAUCCAAACCCAAGAGATT against Gm5941 | inactive: -0.0833
41 | CCAACAUCUGCGUGUUUGCTT against L3hypdh | inactive: 0.36
42 | GGCAAGAAACAGUCAUAAGTT against Eps8l3 | inactive: 0.404
43 | GGUAGUGCCAUAAUUUCUGTT against Nipal2 | inactive: -0.782
44 | GGUAGUAGAGAUGUUUGAUTT against Fam83g | inactive: 1.37

Row | Sequence | z-score
45 | GGGAAUCCAAGGAGAGCAUTT against Arl13b | inactive: 0.471
46 | GGAACAAGUGUCUGACAGUTT against Emc3 | inactive: 1.82
47 | GGCGUAUUUUCCAACAGAGTT against Nxf3 | inactive: -0.551
48 | GGGAGAUCGAACAGAAUGGTT against Tmcc3 | inactive: -0.00508
49 | GGAAGGCAAAUCAAAAUCCTT against Zfp609 | inactive: 0.83
50 | GGUACUUACAGGUUGUCAUTT against Mageb1 | inactive: -0.256
51 | GGUUAAAAACAACUGAAAGTT against 9630028B13Rik | inactive: -1.04
52 | GGUUUUUCUCCUUGGUUAUTT against Krt79 | inactive: 0.716
53 | GGAUCAGUUGGCAAAGCUCTT against Ccdc39 | inactive: -0.651
54 | GCGAGCUAAUGUCACAUUCTT against Il17ra | active: 3.74
55 | GGGUACACAAGAUGGACUGTT against Jun | inactive: -1.25
56 | GGACACAGAUUAAUCAAGATT against Iftap | inactive: 0.144
57 | GGUAUGGUUUCUAUAACAATT against Arsj | inactive: 0.814
58 | CUGAAUCAGAUAAAGAGUUTT against H2ac18 | inactive: 0.485
59 | CCGCCAAGAUUCUGAACAUTT against Ifitm6 | inactive: 0.306
60 | GGGUGUGAGGGAUUUCAUCTT against Ndufa2 | active: 2.22
61 | GGGUGUUGAAAGACUUUUATT against Tnks | inactive: -0.122
62 | GCCAAUAAACGAAACUCUGTT against Reep2 | inactive: 0.733
63 | GGUAGAGGACCGCUUCUAUTT against Spa17 | inactive: 0.34
64 | GGAUCAUCUCCUCCAUUCUTT against Olfr393 | inactive: -0.57
65 | GGUUUUAUGAGAAUAGAACTT against Zdhhc21 | inactive: -1.02
66 | GGAGCUAAACAACUUAAGATT against Cbwd1 | inactive: 0.461

Exported with each value named: entries from further up
CCGCCAAGAUUCUGAACAUTT against Ifitm6
  z-score: inactive: 0.306
GGGUGUGAGGGAUUUCAUCTT against Ndufa2
  z-score: active: 2.22
GGGUGUUGAAAGACUUUUATT against Tnks
  z-score: inactive: -0.122
GCCAAUAAACGAAACUCUGTT against Reep2
  z-score: inactive: 0.733

Remaining list, next part:

Row | Sequence | z-score
67 | GGAAGCGGGAGAUAGAGGATT against Xpo6 | inactive: -0.108
68 | GGCUGGUGACCUACAUCUUTT against Rhbdd2 | inactive: 0.659
69 | GGGCAAUUGCUAUAUCUUATT against Cldn2 | inactive: -0.0256
70 | GGUGACAUGCUGAUUGUUGTT against Yod1 | inactive: 0.714
71 | CGUUAUCUCAGUGGAUACUTT against Wdr36 | inactive: 1.98
72 | GGGAAAUAAAGGUUAUGCCTT against Rpp25l | inactive: -1.11
73 | GGAUAGGAUGUAAAGAUCATT against Atp6v0c | inactive: 0.545
74 | CCGAUAAGUAUUAUGGUGCTT against Fh1 | inactive: 0.162
75 | GGGCAGCUGGAUAGCUAAATT against Gimap5 | inactive: 0.339
76 | GCGGGCUUGGAAGAAUCAUTT against Gle1 | inactive: -1.39
77 | CCUAUCUCCUAACUUAGUUTT against Vmn1r185 | inactive: 1.48
78 | GGUGAUCUAGAAACAACCCTT against Tmco5 | inactive: 0.243
79 | GGACUUCCAGAUCCAACCUTT against Robo4 | inactive: -0.867
80 | GGGAAAAAAAAGCAUCACUTT against Fbxl22 | inactive: -1.45
81 | GCAAGUGCUCCAAUCUUGCTT against Ccl5 | inactive: -0.106
82 | CCUCAAGCCUCACAAUUCATT against Zfp160 | inactive: -0.0856
83 | GGAAGAUCUGUACUACGGGTT against Bsnd | inactive: 1.42
84 | CCAAAGAGUUAUCGUUCUATT against Tktl2 | inactive: 1.1
85 | GGUACAGAUUCUUGUGGACTT against Bace2 | inactive: 1.61
86 | GGUGGAGAUCAAACCAGAGTT against Rps15 | inactive: 1.4
87 | GCUGACCUAUUCUGAUCCATT against Chchd4 | inactive: -0.223
88 | CGGCAGCAAUCAUCAGUAGTT against Ppme1 | inactive: 0.482

Row | Sequence | z-score
89 | GGAACAGUCCUGUACACCCTT against Lilr4b | inactive: -0.0608
90 | GCAACUUGUCAGAUGUUUCTT against Trpm7 | active: 3.35
91 | CCAUCCUGGGACUUAUCUGTT against Olfr447 | inactive: 0.124
92 | GGAAGCCAUUGGGUUAAGCTT against Gpr141 | inactive: -0.117
93 | GGACUCUACUAGGAAUAAATT against Col16a1 | inactive: -0.00624
94 | GGUUUUAAUUUCAACUGUCTT against Tpp1 | inactive: -0.468
95 | GGAUACCAAUAGAACAAAGTT against Zfp775 | inactive: 0.554
96 | GGAGCACUUAGAUGACUAUTT against Skil | inactive: 1.39
97 | GGAAAGGGAAUACUUUGCUTT against Ube2q1 | inactive: -0.0217
98 | GCUCUUAAAACCCACCUGATT against Gzf1 | inactive: -1.97
99 | GGUGAGAAUGUGCUUCAAUTT against Egr2 | inactive: -0.0732
100 | GGGACUUUUACCUCAAAUGTT against Trim30b | inactive: 0.795
101 | GGCACUGUUCUCAUCUGUGTT against Olfr736 | active: -2.41
102 | GGCCUGCACGAAUGAGUUUTT against Ube3a | inactive: -0.0215
103 | GCUAGUGCUUAUUACGAUUTT against Fut4 | inactive: 1.29
104 | GGAUGAUGCUCGAAAGAAGTT against Tssk1 | inactive: 0.462
105 | GGAUUACGGUGGGAUCAUGTT against Faxc | inactive: -1.38
106 | GGAUGUGGUGGAAGAUUUCTT against Krt7 | inactive: 1.2
107 | GGCUUGACUCCAAGACUGUTT against Mtch2 | inactive: -0.0944
